{"source": "patent US20200316087A1", "about": "“NOVEL COMBINATION THERAPY FOR ANXIETY DISORDERS, EPILEPSY, AND PAIN” (priority 2017, published 2020)", "key": {"PTZ seizure threshold": {"tested_on": "PTZ seizure threshold", "assay": "Pentylenetetrazole (PTZ, i.v.)-induced seizure threshold", "assay_type": "in vivo, rats", "details": "MED producing motor impairment / MED producing efficacy", "method": "Male […] Sprague-Dawley rats (Indianapolis, Ind.) were randomly assigned to treatment groups and dosed with vehicle (vehicle=1% carboxymethyl cellulose) with diazepam (0.1, 0.3, or 1 mg/kg) or test compound (3, 10, 30, or 60 mg/kg) 30 minutes prior to testing. Rats were placed in a restrainer and a winged infusion needle was inserted into the lateral tail vein. Intravenous infusion with 10 mg/ml PTZ at a rate of 0.5 ml/min was initiated until a clonic convulsion occurred, and the time to clonic convulsion was recorded in sec or a maximum of 4 min was recorded. Following infusion, rats are euthanized. The dose of PTZ required to elicit a clonic convulsion was calculated using the infusion rate, concentration of PTZ, time to clonic convulsion, and animal weight."}, "PTZ-induced clonus": {"tested_on": "PTZ-induced clonus", "assay": "Pentylenetetrazole (PTZ, 35 mg/kg s.c.)-induced clonic convulsions", "assay_type": "in vivo, rats", "details": "MED producing motor impairment / MED producing efficacy", "method": "After the inverted screen test, the rats were dosed with pentylenetetrazole (PTZ)(35 mg/kg, s.c.) in a volume of 1 ml/kg and placed in an observation cage (40.6×20.3×15.2 cm) with a floor containing […] of wood chip bedding material. PTZ dose was determined to be ˜EC97 for producing clonic convulsions."}, "[1]": {"tested_on": "seizures in amygdala kindled rats", "assay": "Basolateral amygdala kindling", "assay_type": "in vivo", "details": "MED producing motor impairment / MED producing efficacy", "method": "Seizure kindling models evaluate effects of drugs on the sensitization of the nervous system to seizure induction. In this test, drugs were evaluated for their ability to impact seizure parameters in rats that were fully kindled by daily electrical stimulation of their amygdala. Valproic acid was used as a positive control. Experiments were conducted using the general procedures of Zwart et al. (J. Pharmacol. Exp. Ther., 2014, 351:124-133). A bipolar electrode for electrical stimulation and EEG recording was stereotaxically implanted into one hemisphere of the basolateral amygdala (AP −2.2, ML −4.8, DV −8.5 mm, relative to bregma) of male Wistar rats. After post-operative recovery, electrical kindling begins, where a subthreshold constant current (400 μA, 1 ms, monophasic square-wave pulses, 60 Hz for 1 sec) is given once a day Monday-Friday for about 4-6 weeks until a rat is fully kindled. A fully kindled rat has experienced 10 consecutive stage 5 seizures or 10 of its last 12 were stage 5 according to the Racine Scale.\nTwelve fully kindled rats were assigned to this study, and eight rats were selected and randomized to initial compound treatment groups from baseline after discharge threshold (ADT), seizure severity score, and after discharge duration (ADD). […] On test day, rats were dosed 30 min prior to beginning stimulation. After the pre-treatment, rats were stimulated using an ascending staircase sequence beginning at 10 μA and increasing in log unit steps of 10, 16, 25, 40, 65, 100, 160, 250, and 400 μA. Animals were stimulated until they were assigned a Seizure Severity Score for a visually observably seizure or they reached the 400 μA threshold limit. ADD was determined following testing. ADT was the current that induced a seizure; measurements were scale-adjusted to capture the stimulation scale change required to observe a seizure from the previous baseline to the ADT scored on test day. […] The average scale adjusted ADT was approximately 0.63 μA in vehicle treated rats.\nRacine score of behavioral response to stimulation: 0=no behavioral response; 1=immobility, staring and/or facial clonus; 2=head nodding, jaw clonus, and/or tongue protrusion; 3=unilateral forelimb clonus; 4=bilateral forelimb clonus and/or rearing; 5=bilateral forelimb clonus with rearing and loss of balance.\nAfter-Discharge Duration (ADD) is the duration of the first after-discharge.\nADT, ADD, and severity scores were analyzed by ANOVA. Seizure severity data was also analyzed by the nonparametric Skillings-Mack test, a generalization of the Friedman test for one-way repeated measures designs. Posthoc tests when reported were either by Dunnett's method (seizure severity) or using Wilcoxon sign rank tests (ADT and ADD). Valproic acid, used as a positive control was not used in ANOVA calculations."}, "[2]": {"assay": "Unbound plasma and brain concentrations after i.p. dosing", "assay_type": "in vivo, rats", "details": "unbound drug concentrations at ED50 motor impairment vs ED50 efficacy", "from_the_text": "(Table 4). Using these unbound drug concentrations, the PI based on drug levels in plasma was 3 and that based upon brain drug levels was 3.8."}}, "data": [{"compound": "CN1C(=O)CN=C(c2ccccc2)c2cc(Cl)ccc21", "note": "[Diazepam, diazepam, reference compound]", "values": [{"measurement": "Protective index (PI), PTZ Threshold", "setting": "PTZ seizure threshold", "result": 10}, {"measurement": "Protective index (PI), PTZ Clonus", "setting": "PTZ-induced clonus", "result": 1}, {"measurement": "Protective index (PI), After-Discharge Duration", "setting": "[1]", "result": "<1"}, {"measurement": "Protective index (PI), After-Discharge Threshold", "setting": "[1]", "result": 1}, {"measurement": "Protective index (PI), Seizure Severity", "setting": "[1]", "result": 1}]}, {"compound": "C#Cc1ccc2c(c1)C(c1ccccn1)=NCc1c(-c3cnco3)ncn1-2", "note": "[KRM-II-81, 5-(8-ethynyl-6-(pyridin-2-yl)-4H-benzo[f]imidazo[1,5-a][1,4]diazepin-3-yl)oxazole]", "values": [{"measurement": "Protective index (PI), PTZ Threshold", "setting": "PTZ seizure threshold", "result": 15}, {"measurement": "Protective index (PI), PTZ Clonus", "setting": "PTZ-induced clonus", "result": 5}, {"measurement": "Protective index (PI), After-Discharge Duration", "setting": "[1]", "result": 15}, {"measurement": "Protective index (PI), After-Discharge Threshold", "setting": "[1]", "result": 15}, {"measurement": "Protective index (PI), Seizure Severity", "setting": "[1]", "result": 15}, {"measurement": "PI based on drug levels in plasma", "setting": "[2]", "result": 3}, {"measurement": "PI based upon brain drug levels", "setting": "[2]", "result": 3.8}]}, {"compound": "C#Cc1ccc2c(c1)C(c1ccccc1)=NCc1c(-c3cnco3)ncn1-2", "note": "[KRM-II-82, 5-(8-ethynyl-6-phenyl-4H-benzo[f]imidazo[1,5-a][1,4]diazepin-3-yl)oxazole]", "values": [{"measurement": "Protective index (PI), PTZ Threshold", "setting": "PTZ seizure threshold", "result": 15}, {"measurement": "Protective index (PI), PTZ Clonus", "setting": "PTZ-induced clonus", "result": 15}, {"measurement": "Protective index (PI), After-Discharge Duration", "setting": "[1]", "result": "<5"}, {"measurement": "Protective index (PI), After-Discharge Threshold", "setting": "[1]", "result": 15}, {"measurement": "Protective index (PI), Seizure Severity", "setting": "[1]", "result": 15}]}, {"compound": "C#Cc1ccc2c(c1)C(c1ccccn1)=NCc1c(-c3nc(CC)no3)ncn1-2", "note": "[MP-III-080, 3-ethyl-5-(8-ethynyl-6-(pyridin-2-yl)-4H-benzo[f]imidazo[1,5-a][1,4]diazepin-3-yl)-1,2,4-oxadiazole]", "values": [{"measurement": "Protective index (PI), PTZ Clonus", "setting": "PTZ-induced clonus", "result": ">3"}]}]}
